Publication PMC12431657, “Discovery and mechanistic insights of dibenzoylmethane as a broad spectrum inhibitor of coronavirus” (PLOS Pathogens, 2025)
Where a name gives a salt, the structure may show the parent alone. Read-outs that look alike come from different tables or passages of the source. Hit rate of the full screen: of about 3,300 compounds, about 60 (2%) showed an effect of 50% or more. The list shows a part of the results. Peptide text beside a SMILES is read from it.

System: HCoV-OC43
Design: species or system RD; HTS, protection from HCoV-OC43 induced cell death, luminescent cell viability (CellCounting-Lite 2.0), inhibition rate
Details: 24 h post infection, 1 h compound pre-incubation, 10 µM, inhibitor

| SMILES | OC43 Inhibition rate (OC43 Inhibition rate, 24 h) | OC43 Inhibition rate |
| --- | --- | --- |
| C=C[C@H]1CN2CC[C@H]1C[C@H]2[C@H](O)c1ccnc2ccc(OC)cc12 [Quinine] | 0.5% | – |
| O=C(O)CCCc1c[nH]c2ccccc12 [Indole-3-butyric acid] | – | -0.3% |
| CC(C)[C@@H](C)/C=C/[C@@H](C)[C@H]1CC[C@H]2C3=CC=C4C[C@@H](O)CC[C@]4(C)[C@H]3CC[C@]12C [Ergosterol] | – | -0.2% |
| NC(Cc1cc(I)c(Oc2cc(I)c(OS(=O)(=O)O)c(I)c2)c(I)c1)C(=O)O (stereo not drawn) [Thyroxine sulfate] | – | -1.3% |
| NCCCCC(=O)O [5-Aminovaleric acid] | – | -1.8% |
| COc1c(O)cc2occ(-c3ccc(O)cc3)c(=O)c2c1O [Tectorigenin] | – | -0.2% |
| c1ccc(CC2=NCCN2)cc1 [Tolazoline (hydrochloride)] | – | 7.1% |
| COc1cc(-c2coc3cc4c(c(OC)c3c2=O)OCO4)cc(OC)c1OC [Irisflorentin] | – | 3.8% |
| COc1cc2oc(=O)ccc2cc1O[C@@H]1O[C@H](CO)[C@@H](O)[C@H](O)[C@H]1O [Magnolioside] | – | -0.1% |
| O=P(O)(O)O[C@H]1[C@H](OP(=O)(O)O)[C@@H](OP(=O)(O)O)[C@H](OP(=O)(O)O)[C@@H](OP(=O)(O)O)[C@H]1OP(=O)(O)O [Phytic acid (dodecasodium hydrate)] | -0.3% | – |
| NC(N)=NCCCC(=O)O [4-Guanidinobutanoic acid] | – | 7.6% |
| C=C1[C@@H](C)[C@H]2[C@H](Cc3ccccc3)NC(=O)[C@]23OC(=O)/C=C/[C@H](O)CCC[C@@H](C)C/C=C/[C@H]3[C@@H]1O [Cytochalasin B] | – | 63% |
| Nc1ccn([C@@H]2O[C@H](COP(=O)(O)OP(=O)(O)OP(=O)(O)O)[C@@H](O)[C@H]2O)c(=O)n1 [Cytidine-5'-triphosphate (disodium)] | – | 1.6% |
| CC[C@H]1OC(=O)[C@H](C)[C@@H](O[C@H]2C[C@@](C)(OC)[C@@H](O)[C@H](C)O2)[C@H](C)[C@@H](O[C@@H]2O[C@H](C)C[C@H](N(C)C)[C@H]2O)[C@](C)(O)C[C@@H](C)C(=O)[C@H](C)[C@@H](O)[C@]1(C)O [Erythromycin] | – | 9.7% |
| CC(=O)OC/C=C(/C)CCC=C(C)C [Neryl acetate] | – | 0.1% |
| CC(C)C(=O)C(=O)O [3-Methyl-2-oxobutanoic acid] | – | -0.3% |
| C[C@@H]1O[C@@H](OC[C@H]2O[C@@H](OCCc3ccc(O)c(O)c3)[C@H](O)[C@@H](O)[C@@H]2O)[C@H](O)[C@H](O)[C@H]1O [Forsythoside E] | – | -0.7% |
| O=C1C[C@@H](c2ccc(O[C@@H]3O[C@H](CO)[C@@H](O)[C@H](O)[C@H]3O)cc2)Oc2cc(O)ccc21 [Liquiritin] | – | -2.3% |
| COc1c(O[C@@H]2O[C@H](C(=O)O)[C@@H](O)[C@H](O)[C@H]2O)cc2oc(-c3ccccc3)cc(=O)c2c1O [Oroxylin A-7-O-glucuronide] | – | -0.2% |
| COc1ccc2c3c1O[C@H]1C[C@@H](O)CC[C@]31CCN(C)C2 [Lycoramine] | – | -0.4% |
| C[C@@H]1CC[C@H]2C(C)(C)[C@H]3C[C@@]12CC[C@@]3(C)O [Cedrol] | – | 0.9% |

| SMILES | OC43 Inhibition rate (OC43 Inhibition rate, 24 h) | OC43 Inhibition rate |
| --- | --- | --- |
| CC[C@@H]1/C=C/C=C/C[C@H](C)[C@H](O)[C@](C)(O)C(=O)[C@H](C)[C@@H](O)[C@H](C)C(=O)[C@H](C)[C@@H](O)[C@H](C)/C=C/C(=O)O[C@H]2[C@@H](C)[C@@H](CC1)O[C@@]1(CC[C@@H](C)[C@@H](C[C@H](C)O)O1)[C@@H]2C [Oligomycin A] | – | -2.5% |
| C=CC(=C)CCC=C(C)C [Myrcene] | – | -1.2% |
| CCCCCCCCCCCCCCCCCC(=O)NCc1ccccc1 [N-Benzyloctadecanamide] | – | -0.1% |
| C[C@H](N)C(=O)N[C@@H](CCC(N)=O)C(=O)O [L-Alanyl-L-glutamine] (H-Ala-Gln-OH) | – | 3.4% |
| O=c1cc(-c2ccccc2)oc2cc(O[C@@H]3O[C@H](CO[C@@H]4O[C@H](CO)[C@@H](O)[C@H](O)[C@H]4O)[C@@H](O)[C@H](O)[C@H]3O)c(O)c(O)c12 [Oroxin B] | – | 0.2% |
| N[C@@H](CCC(=O)O)C(=O)O [L-Glutamic acid] | -0.4% | – |
| CO[C@H]1C[C@H](O[C@H]2[C@H](C)O[C@@H](O[C@@H]3/C(C)=C/C[C@@H]4C[C@@H](C[C@]5(C=C[C@H](C)[C@@H](C6CCCCC6)O5)O4)OC(=O)[C@@H]4C=C(C)[C@@H](O)[C@H]5OC/C(=C\C=C\[C@@H]3C)[C@]54O)C[C@@H]2OC)O[C@@H](C)[C@@H]1O [Doramectin] | – | 4.2% |
| C[n+]1c2n(c(=O)c3ccccc31)CCc1c-2[nH]c2ccccc12 [Dehydroevodiamine (hydrochloride)] | – | 1.2% |
| CCCCCCCCC/C=C/C(=O)CCc1ccc(O)c(OC)c1 [[10]-Shogaol] | – | 0% |
| CC(C)C[C@@H](N)C(=O)O [D-Leucine] | – | 3% |
| O=C1C[C@@H](O[C@@H]2O[C@H](CO)[C@@H](O)[C@H](O)[C@H]2O)CO1 [Kinsenoside] | – | 1.3% |
| COC(=O)c1cc(O)c(O)c(OC)c1 [Methyl 3-O-methylgallate] | – | -4.2% |
| C[C@H](O)CO [(S)-(+)-1,2-Propanediol] | – | 0.1% |
| COC(=O)/C=C/c1ccc(O)cc1 [Methyl p-coumarate] | 4.7% | – |
| O=C1O[C@H]([C@@H](O)CO)C(O)=C1OP(=O)(O)O [L-Ascorbic acid 2-phosphate (trisodium)] | – | 9.8% |
| Oc1cccc2ccccc12 [1-Naphthol] | – | 0% |
| C=C1C(=O)O[C@H]2C[C@@H](C)[C@@H]3C=CC(=O)[C@@]3(C)[C@@H](OC(C)=O)[C@H]12 [Bigelovin] | – | -8.7% |
| CC1=NCC[C@@H](C(=O)O)N1 [Ectoine] | – | 4% |
| C[C@H]1[C@H]2[C@H](O[C@@H]3O[C@H](CO)[C@@H](O)[C@H](O)[C@H]3O)OC=C(C(=O)O)[C@H]2C[C@@H]1O [8-Epiloganic acid] | – | -0.9% |
| N[C@H]1[C@H](O[C@H]2[C@H](O)[C@@H](N)[C@H](O[C@H]3[C@H](O)[C@@H](N)[C@H](O[C@H]4[C@H](O)[C@@H](N)[C@H](O[C@@H]([C@H](O)[C@@H](N)C=O)[C@H](O)CO)O[C@@H]4CO)O[C@@H]3CO)O[C@@H]2CO)O[C@H](CO)[C@@H](O)[C@@H]1O [Chitopentaose (pentahydrochloride)] | – | 9.1% |
| O=C1C[C@@H](c2ccccc2)Oc2cc(O)cc(O)c21 [Pinocembrin] | – | 2.4% |

Some of the entries so far, with tabs:
SMILES	OC43 Inhibition rate (OC43 Inhibition rate, 24 h)	OC43 Inhibition rate
O=P(O)(O)O[C@H]1[C@H](OP(=O)(O)O)[C@@H](OP(=O)(O)O)[C@H](OP(=O)(O)O)[C@@H](OP(=O)(O)O)[C@H]1OP(=O)(O)O [Phytic acid (dodecasodium hydrate)]	-0.3%	–
NC(N)=NCCCC(=O)O [4-Guanidinobutanoic acid]	–	7.6%
C=C1[C@@H](C)[C@H]2[C@H](Cc3ccccc3)NC(=O)[C@]23OC(=O)/C=C/[C@H](O)CCC[C@@H](C)C/C=C/[C@H]3[C@@H]1O [Cytochalasin B]	–	63%

Later entries.

| SMILES | OC43 Inhibition rate (OC43 Inhibition rate, 24 h) | OC43 Inhibition rate |
| --- | --- | --- |
| O=P(O)(O)O[C@H]1O[C@H](CO)[C@@H](O)[C@H](O)[C@H]1O [α-D-Glucose-1-phosphate (disodium hydrate)] | – | 6.2% |
| C=C1[C@H](OC(=O)/C=C(\C)CC)C[C@@H](C(C)C)[C@@H]2[C@@H]([C@@H](C)OC(C)=O)C(=O)C[C@@H]12 [Tussilagone] | – | 60.7% |
| N[C@@H](CCC[C@H](N)C(=O)O)C(=O)O [2,6-Diaminoheptanedioic acid] | – | 1.4% |
| O=C(O)Cc1cccc(O)c1 [3-Hydroxyphenylacetic acid] | – | -0.3% |
| C[C@@]12C[C@@]3(O)O[C@@H](O1)[C@]1(COC(=O)c4ccc(O)cc4)[C@H]3C[C@@]12O[C@@H]1O[C@H](COC(=O)c2ccccc2)[C@@H](O)[C@H](O)[C@H]1O [Benzoyloxypaeoniflorin] | – | 0.5% |
| COc1ccc([C@@H]2CC(=O)c3c(O)cc(O)cc3O2)cc1O [Hesperetin] | – | 0% |
| O=C1O[C@H]([C@H](O)CO)C(O)=C1O [Erythorbic acid] | 0.7% | – |
| O=c1cc(-c2ccccc2)oc2c(O)c(O)ccc12 [7,8-Dihydroxyflavone] | – | 0.2% |
| CC(C)CCCO [4-Methyl-1-pentanol] | – | 1.4% |
| COc1cc(C)c2c(=O)cc(C[C@@H](C)O)oc2c1[C@@H]1O[C@H](CO)[C@@H](O)[C@H](O)[C@H]1OC(=O)/C=C/c1ccc(O)cc1 [Aloeresin D] | – | 3.4% |
| CCCCCCCCCCCCCCCO [1-Pentadecanol] | – | 1% |
| Nc1nc(N)nc(N)n1 [Melamine] | – | -0.3% |
| Cc1ccc2ccc(=O)oc2c1 [7-Methylcoumarin] | – | 0.5% |
| COC(=O)c1cc(OC)c(OC)c(OC)c1 [Methyl 3,4,5-trimethoxybenzoate] | – | -0.3% |
| C=C[C@H]1[C@H](O[C@@H]2O[C@H](CO)[C@@H](O)[C@H](O)[C@H]2O)OC=C2C(=O)N3CCc4c([nH]c5ccccc45)[C@@H]3C[C@H]21 [Strictosamide] | – | 1.9% |
| CSCCC(NC(C)=O)C(=O)O (racemic) [N-Acetyl-DL-methionine] | – | -0.1% |
| Oc1ccc2ccccc2c1 [2-Naphthol] | – | 1.3% |
| COc1c2occc2cc2ccc(=O)oc12 [Methoxsalen] | – | 2.3% |
| O=C(N[C@@H](Cc1ccccc1)C(=O)N[C@H](CO)Cc1ccccc1)c1ccccc1 [Aurantiamide] | – | 1% |
| COc1ccc(CCO)cc1 [4-Methoxyphenethyl alcohol] | – | -0.3% |
| CC1(C)CC[C@]2(C(=O)O[C@@H]3O[C@H](CO)[C@@H](O)[C@H](O)[C@H]3O)CC[C@]3(C)C(=CC[C@@H]4[C@@]5(C)CC[C@H](O[C@@H]6O[C@H](C(=O)O)[C@@H](O)[C@H](O)[C@H]6O)C(C)(C)[C@@H]5CC[C@]43C)[C@@H]2C1 [Chikusetsusaponin Iva] | – | 7.6% |
